No constants are given. Whether binding was seen depends on the method and setting. Binding seen in cells or lysates may run through a third protein. Some entries that bind do so weakly or less than the wild type. Tags and fused reporters may be left off the sequences shown.

Assay [1] has as its target T1, Cox6FLAG, cytochrome c oxidase subunit Cox6 with FLAG-tag (S. cerevisiae) (UniProt P00427).
T1 sequence: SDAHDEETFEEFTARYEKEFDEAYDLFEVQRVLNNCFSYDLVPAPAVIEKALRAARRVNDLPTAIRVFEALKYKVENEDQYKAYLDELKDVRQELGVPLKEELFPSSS
The assay can be described thus: co-IP; purification via FLAG-tag on Rcf1, Rcf2 or Cox6 from mitochondria solubilised in 2% digitonin (cells grown in YPG, 30°C, logarithmic phase), endogenous expression levels; Western blot.

Assay [2] deals with Rcf1FLAG, full-length Rcf1 with FLAG-tag (S. cerevisiae) (UniProt Q03713). Nature of the assay: cross-linking; isolated mitochondria in isotonic buffer (0.6 M sorbitol, 20 mM HEPES pH 7.4) with 200 μM crosslink reagent (SMPB; also BMH in Figure 6C) for 30 min at 30°C, DMSO as control; SDS-PAGE, Western blot and immuno decoration.
In assay [3] the target is T2, Cox3, cytochrome c oxidase subunit (S. cerevisiae (endogenous in BY4741 mitochondria)) (UniProt P00420).
T2 sequence: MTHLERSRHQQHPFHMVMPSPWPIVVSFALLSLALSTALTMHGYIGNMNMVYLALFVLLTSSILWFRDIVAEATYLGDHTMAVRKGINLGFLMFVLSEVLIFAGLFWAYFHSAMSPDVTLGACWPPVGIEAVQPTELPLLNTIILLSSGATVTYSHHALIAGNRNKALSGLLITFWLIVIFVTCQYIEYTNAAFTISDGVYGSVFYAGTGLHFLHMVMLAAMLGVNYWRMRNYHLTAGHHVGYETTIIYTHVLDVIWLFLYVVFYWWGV
The assay is described as above.

B1: Rcf1 (respiratory supercomplex factor 1) (protein, UniProt Q03713 1-159)
chain: MSRMPSSFDVTERDLDDMTFGERIIYHCKKQPLVPIGCLLTTGAVILAAQNVRLGNKWKAQYYFRWRVGLQAATLVALVAGSFIYGTSGKELKAKEEQLKEKAKMREKLWIQELERREEETEARRKRAELARMKTLENEEEIKNLEKELSDLENKLGKK
With B1, the binding result in assay [1] is given as “binds”.

B2: Rcf1FLAG, full-length Rcf1 with FLAG-tag (protein, UniProt Q03713 1-159)
chain: MSRMPSSFDVTERDLDDMTFGERIIYHCKKQPLVPIGCLLTTGAVILAAQNVRLGNKWKAQYYFRWRVGLQAATLVALVAGSFIYGTSGKELKAKEEQLKEKAKMREKLWIQELERREEETEARRKRAELARMKTLENEEEIKNLEKELSDLENKLGKK
As to B2, the binding result was “no binding” in assay [2] and “binds” in assay [3].

B3: Rcf2 (respiratory supercomplex factor 2) (protein, UniProt P53721 1-224)
chain: MKILTQDEIEAHRSHTLKGGIEGALAGFAISAIIFKVLPRRYPKFKPSTLTWSIKTALWITPPTVLTAICAEEASNNFDATMYGSGSSSEDALDEHRRWKSLSTKDKFVEGLSNNKYKIITGAWAASLYGSWVIVNKDPIMTKAQKIVQARMYAQFITVGLLLASVGLSMYENKLHPNKQKVNEMRRWENALRVAEEEERLEKEGRRTGYVSNEERINSKIFKS
As to B3, the binding result in assay [1] is given as “binds”.

B4: Rcf1ΔC, conserved Hig-domain of Rcf1 without the C-terminus, FLAG-tagged (domain or fragment, UniProt Q03713 1-95)
chain: MSRMPSSFDVTERDLDDMTFGERIIYHCKKQPLVPIGCLLTTGAVILAAQNVRLGNKWKAQYYFRWRVGLQAATLVALVAGSFIYGTSGKELKAK
As for B4, the binding entry in assay [3] is reported as “binds”.

The values above are taken from publication PMC6971206.
